Reference: PubChem BioAssay AID587 (National Center for Advancing Translational Sciences (NCATS), 2007)
Out of some 59,000 compounds screened, about 35 (0.06%) were called active. The shares of active, inactive and inconclusive entries below differ from those in the screen. No stated cut-off is given here; in the data, active means max dye-equivalent concentration above about 10 nM; inconclusive means between about 1.1 nM and that limit; inactive means weaker than that.

Test: qHTS Assay for Spectroscopic Profiling in Texas Red Spectral Region
Conditions: Compound fluorescence, Texas Red channel, 547/618 nm; hits give high values
Method in brief: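 Compound fluorescence was read after 15 min at room temperature in 100 mM Tris, pH 8.0, using 547 nm excitation and 618 nm emission across a concentration series. It was expressed as Texas Red dye-equivalent concentration from an on-plate standard curve.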

| Structure (SMILES) | max dye-equivalent concentration |
| --- | --- |
| COCCn1c(SCC(=O)N(C(C)C)C(C)C)nnc1-c1cc2ccccc2cc1O | inconclusive: 1.1 nM |
| Cn1cc(Br)cc2nc(C(F)(F)F)nc1-2 | inconclusive: 1.1 nM |
| CC(C)N=C(NC#N)SCC(=O)NC(C)(C)C | inconclusive: 2.6 nM |
| COc1ccc(Cl)cc1NC(=O)CSc1nncn1-c1cccnc1 | inconclusive: 2.3 nM |
| Cc1cccc(C)c1NC(=O)Nc1ccc(S(N)(=O)=O)cc1 | inconclusive: 1.2 nM |
| Cc1nc2cc(NC(=O)NCc3ccc4c(c3)OCO4)ccc2o1 | inconclusive: 1.2 nM |
| CCc1ccc2[nH]c(=O)c(C(c3nnnn3CC3CCCO3)N3CCCc4ccccc43)cc2c1 (stereo not given) | inconclusive: 1.1 nM |
| CCOC(=O)N1CCN(C(=O)Nc2ccc(Cl)cc2Cl)CC1 | inconclusive: 1.1 nM |
| CN1C(=O)N(C)C2(c3ccccc3)NC(=O)NC12c1ccccc1 (stereo not given) | inconclusive: 1.1 nM |
| O=C(Cc1ccccc1)Nc1ccccc1CO | inconclusive: 1.7 nM |
| CC(C)N(C(=O)CSc1nn2c(=O)c(C(C)(C)C)nnc2s1)c1ccccc1 | inconclusive: 1.8 nM |
| CCCCN(CCCNC(=O)c1c(C)cc(=O)oc1C)c1ccccc1 | inconclusive: 1.2 nM |
| N#CC12C(N)=NC3(OCCO3)C1(C#N)C1=C(CCC1)NC2c1ccccc1 (stereo not given) | inconclusive: 1.3 nM |
| Cc1nc(COC(=O)c2c(C)nn(-c3ccccc3)c2C)cs1 | inconclusive: 1.1 nM |
| Nc1c2c(nc3ccn(Cc4ccccc4)c(=O)c13)CCC2 | inconclusive: 2.5 nM |
| CCOC(=O)N1CCN(Cc2cc(=O)oc3ccc4ccccc4c23)CC1 | inconclusive: 1.5 nM |
| Cc1ccn2c(CCc3nnc4cc(C)ccn34)nnc2c1 | inconclusive: 1.7 nM |
| O=S1(=O)CCN2C(Cc3ccc(SC(F)F)cc3)=CSC2=N1 | inconclusive: 1.8 nM |
| CCn1cnc2cc(NCc3ccncc3)ccc21 | inconclusive: 1.7 nM |
| COC(=O)c1ccccc1NC(=O)CSc1ccccn1 | inactive |
| Cc1ccc2c(c1)cc(CN(Cc1ccccc1)C(=O)N(C)C)c1nnnn12 | inconclusive: 1.4 nM |
| CCOc1ccc(C(=O)N(Cc2ccc(N(C)C)cc2)C2CCS(=O)(=O)C2)cc1 (stereo not given) | inconclusive: 1.1 nM |
| COc1cccc(-c2cc(C(F)(F)F)n3nc(N)nc3n2)c1 | inconclusive: 1.8 nM |
| COc1c2ccoc2cc2oc(=O)ccc12 | inactive |
| CC1(C)NC(=O)N(CCCOc2ccc(Br)cc2Cl)C1=O | inconclusive: 1.2 nM |
| O=C(Nc1cccc(F)c1)N1CC2(CCN(C(=O)c3cc(C(F)(F)F)cc(C(F)(F)F)c3)CC2)C1 | inactive |
| CCn1c(=O)c(C2=NS(=O)(=O)c3ccccc3N2)c(O)c2ccccc21 | inconclusive: 1.1 nM |
| CCn1c(=O)c2c(cnn2C)c2ccccc21 | inconclusive: 1.1 nM |

| Structure (SMILES) | max dye-equivalent concentration |
| --- | --- |
| O=C(c1cccc(S(=O)(=O)N2CCOCC2)c1)N1CCCCCC1 | inconclusive: 1.2 nM |
| Cc1cc2nc([C@H](C)C(=O)c3ccc(Cl)cc3)c(=O)[nH]c2cc1C | inactive |
| O=C(Cc1ccc(F)cc1)OCC(=O)c1cc2ccccc2o1 | inconclusive: 2 nM |
| N#Cc1ccc(COC(=O)Cn2nnc(-c3ccccc3)n2)cc1 | inconclusive: 1.5 nM |
| Cc1cc2oc(=O)cc(C)c2cc1NC(=O)CCC(=O)O | inconclusive: 1.4 nM |
| CC(C)c1nc(C#N)c(NCCCn2ccnc2)o1 | inconclusive: 1.5 nM |
| O=C(NCc1cccs1)c1ccc2c(c1)ncn2C1CCCC1 | inconclusive: 1.2 nM |
| N#Cc1ccc(CSc2nnc(-c3cnccn3)o2)cc1 | inconclusive: 1.7 nM |
| CCCN1C(=O)c2ccc(C(=O)Nc3nccs3)cc2C1=O | inconclusive: 1.4 nM |
| COCCCNC(=O)CSc1nc2ccccc2c(=O)n1CCCC(=O)NCC1CCCO1 (stereo not given) | inconclusive: 1.5 nM |
| Fc1ccccc1C(c1nnnn1Cc1ccc2c(c1)OCO2)N1CCN(Cc2ccccc2)CC1 (stereo not given) | inconclusive: 2.3 nM |
| Cc1ccc(S(=O)(=O)NC(=O)NCc2ccc3c(c2)OCO3)cc1 | inconclusive: 1.4 nM |
| CCOc1ccc(S(=O)(=O)N2Cc3ccccc3CC2C(=O)NCCCn2ccnc2)cc1 (stereo not given) | inconclusive: 1.6 nM |
| CCCCCCNC(=O)C(C#N)c1nc2ccccc2nc1N1CCCC1 (stereo not given) | inactive |
| CCOc1nc(-c2ccc(C)cc2)ccc1-c1noc(COC)n1 | inconclusive: 1.7 nM |
| COc1cccc(C(c2nnnn2Cc2ccco2)N2CCN(c3cccc(C)c3C)CC2)c1OC (stereo not given) | inconclusive: 2 nM |
| c1ccc([C@@H]2CN3CCSC3=N2)cc1 | inactive |
| Cc1ccc(S(=O)(=O)N2CCN(S(C)(=O)=O)C2)cc1 | inconclusive: 1.1 nM |
| CCCCn1nnc(NC(=O)CC23CC4CC(CC(C4)C2)C3)n1 | inconclusive: 1.3 nM |
| CCC(C)C(=O)Nc1c2c(nc3c1CCC3)CCCC2 (stereo not given) | inconclusive: 2.9 nM |
| CC[C@]1(O)C[C@H]2CN(CCc3c([nH]c4ccccc34)[C@](C(=O)OC)(c3cc4c(cc3OC)N(C=O)[C@H]3[C@@](O)(C(=O)OC)[C@H](OC(C)=O)[C@@]5(CC)C=CCN6CC[C@]43[C@H]65)C2)C1 | inactive |
| O/N=C(/CN(O)/C=C1/C=CC=N1)c1cccs1 | inconclusive: 2 nM |
| c1ccc(CCn2nnnc2C(c2cccs2)N2CCN(Cc3ccc4c(c3)OCO4)CC2)cc1 (stereo not given) | inconclusive: 1.1 nM |
| O=C(CCn1nc(-c2ccccc2)ccc1=O)N1CCCC1 | inconclusive: 1.2 nM |
| Cc1c(C(=O)NCc2ccccc2)oc2c1C(=O)CCC2 | inconclusive: 1.1 nM |
| COC(=O)CNC(=O)C(Cc1c[nH]c2ccccc12)NC(=O)OC(C)(C)C (stereo not given) | inconclusive: 1.2 nM |
| Nc1c2c(nc3ccn(-c4ccccc4)c(=O)c13)CCCCC2 | inconclusive: 2.6 nM |

2 of the compounds above, with each value named:
Cc1cc2nc([C@H](C)C(=O)c3ccc(Cl)cc3)c(=O)[nH]c2cc1C
  max dye-equivalent concentration: inactive
COC(=O)CNC(=O)C(Cc1c[nH]c2ccccc12)NC(=O)OC(C)(C)C (stereo not given)
  max dye-equivalent concentration: inconclusive: 1.2 nM
